Values of other authors as cited in patent US11346820B2, “HPLC-PDA method and uses thereof in phytoestrogen measurement” (The Board Of Regents, The University of Texas System, priority 2019, dated 2022).

Details: spiked at 1, 10 and 100 μmol/l, n=5, urine and serum

Recoveries after spiking, 100%:
Oc1ccc([C@H]2COc3cc(O)ccc3C2)cc1 (racemic) [Equol]
O=c1c(-c2ccc(O)cc2)coc2cc(O)cc(O)c12 [Genistein]
O=c1c(-c2ccc(O)cc2)coc2cc(O)ccc12 [Daidzein]
